In PMC13107559:
No constants are given. Whether binding was seen depends on the method and setting. Binding seen in cells or lysates may run through a third protein. Some results given as binding are weak or reduced against the parent protein; the word gives no strength.

Sequences of proteins named here, by UniProt entry; tags and fusion partners are left off.
UniProt Q3TKT4: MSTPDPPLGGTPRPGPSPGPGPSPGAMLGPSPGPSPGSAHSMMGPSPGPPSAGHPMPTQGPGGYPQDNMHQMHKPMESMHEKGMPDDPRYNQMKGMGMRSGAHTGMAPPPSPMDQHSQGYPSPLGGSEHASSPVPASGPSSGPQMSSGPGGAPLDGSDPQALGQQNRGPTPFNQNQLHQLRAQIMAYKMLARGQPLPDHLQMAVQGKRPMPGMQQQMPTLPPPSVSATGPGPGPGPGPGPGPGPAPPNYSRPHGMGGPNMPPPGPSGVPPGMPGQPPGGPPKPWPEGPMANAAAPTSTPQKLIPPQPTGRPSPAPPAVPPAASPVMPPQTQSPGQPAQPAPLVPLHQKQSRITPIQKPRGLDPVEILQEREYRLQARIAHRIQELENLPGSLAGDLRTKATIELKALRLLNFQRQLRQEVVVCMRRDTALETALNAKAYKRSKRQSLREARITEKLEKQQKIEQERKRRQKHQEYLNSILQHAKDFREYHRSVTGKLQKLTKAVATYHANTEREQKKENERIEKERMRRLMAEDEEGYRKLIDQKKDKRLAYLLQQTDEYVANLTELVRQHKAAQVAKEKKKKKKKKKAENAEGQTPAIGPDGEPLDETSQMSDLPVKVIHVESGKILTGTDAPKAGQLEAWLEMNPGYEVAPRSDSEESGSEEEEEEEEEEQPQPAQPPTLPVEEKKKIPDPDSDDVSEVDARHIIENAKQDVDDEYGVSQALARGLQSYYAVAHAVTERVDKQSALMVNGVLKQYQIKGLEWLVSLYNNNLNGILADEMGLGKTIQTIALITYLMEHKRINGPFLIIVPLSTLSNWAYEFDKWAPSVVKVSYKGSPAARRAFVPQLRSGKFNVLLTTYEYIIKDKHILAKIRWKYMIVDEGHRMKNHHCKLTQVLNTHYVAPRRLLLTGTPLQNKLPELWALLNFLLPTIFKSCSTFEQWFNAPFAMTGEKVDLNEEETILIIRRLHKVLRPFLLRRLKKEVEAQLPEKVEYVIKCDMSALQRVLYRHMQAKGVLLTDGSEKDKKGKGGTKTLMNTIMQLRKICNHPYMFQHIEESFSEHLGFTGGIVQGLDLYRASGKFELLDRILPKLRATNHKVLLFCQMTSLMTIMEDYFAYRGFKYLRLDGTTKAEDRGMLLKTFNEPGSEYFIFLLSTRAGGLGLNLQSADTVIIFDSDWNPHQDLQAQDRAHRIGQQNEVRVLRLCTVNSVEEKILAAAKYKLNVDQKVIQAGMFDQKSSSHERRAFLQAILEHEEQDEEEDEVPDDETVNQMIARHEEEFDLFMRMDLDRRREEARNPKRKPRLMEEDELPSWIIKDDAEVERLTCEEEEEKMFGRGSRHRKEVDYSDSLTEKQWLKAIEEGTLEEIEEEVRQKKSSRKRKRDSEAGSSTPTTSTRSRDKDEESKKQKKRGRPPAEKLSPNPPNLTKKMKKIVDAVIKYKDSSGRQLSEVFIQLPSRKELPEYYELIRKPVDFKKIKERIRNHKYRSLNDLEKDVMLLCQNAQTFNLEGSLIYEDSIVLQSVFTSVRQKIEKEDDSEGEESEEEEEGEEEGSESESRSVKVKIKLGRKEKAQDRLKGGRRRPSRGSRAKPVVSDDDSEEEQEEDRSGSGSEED
UniProt Q09XV5: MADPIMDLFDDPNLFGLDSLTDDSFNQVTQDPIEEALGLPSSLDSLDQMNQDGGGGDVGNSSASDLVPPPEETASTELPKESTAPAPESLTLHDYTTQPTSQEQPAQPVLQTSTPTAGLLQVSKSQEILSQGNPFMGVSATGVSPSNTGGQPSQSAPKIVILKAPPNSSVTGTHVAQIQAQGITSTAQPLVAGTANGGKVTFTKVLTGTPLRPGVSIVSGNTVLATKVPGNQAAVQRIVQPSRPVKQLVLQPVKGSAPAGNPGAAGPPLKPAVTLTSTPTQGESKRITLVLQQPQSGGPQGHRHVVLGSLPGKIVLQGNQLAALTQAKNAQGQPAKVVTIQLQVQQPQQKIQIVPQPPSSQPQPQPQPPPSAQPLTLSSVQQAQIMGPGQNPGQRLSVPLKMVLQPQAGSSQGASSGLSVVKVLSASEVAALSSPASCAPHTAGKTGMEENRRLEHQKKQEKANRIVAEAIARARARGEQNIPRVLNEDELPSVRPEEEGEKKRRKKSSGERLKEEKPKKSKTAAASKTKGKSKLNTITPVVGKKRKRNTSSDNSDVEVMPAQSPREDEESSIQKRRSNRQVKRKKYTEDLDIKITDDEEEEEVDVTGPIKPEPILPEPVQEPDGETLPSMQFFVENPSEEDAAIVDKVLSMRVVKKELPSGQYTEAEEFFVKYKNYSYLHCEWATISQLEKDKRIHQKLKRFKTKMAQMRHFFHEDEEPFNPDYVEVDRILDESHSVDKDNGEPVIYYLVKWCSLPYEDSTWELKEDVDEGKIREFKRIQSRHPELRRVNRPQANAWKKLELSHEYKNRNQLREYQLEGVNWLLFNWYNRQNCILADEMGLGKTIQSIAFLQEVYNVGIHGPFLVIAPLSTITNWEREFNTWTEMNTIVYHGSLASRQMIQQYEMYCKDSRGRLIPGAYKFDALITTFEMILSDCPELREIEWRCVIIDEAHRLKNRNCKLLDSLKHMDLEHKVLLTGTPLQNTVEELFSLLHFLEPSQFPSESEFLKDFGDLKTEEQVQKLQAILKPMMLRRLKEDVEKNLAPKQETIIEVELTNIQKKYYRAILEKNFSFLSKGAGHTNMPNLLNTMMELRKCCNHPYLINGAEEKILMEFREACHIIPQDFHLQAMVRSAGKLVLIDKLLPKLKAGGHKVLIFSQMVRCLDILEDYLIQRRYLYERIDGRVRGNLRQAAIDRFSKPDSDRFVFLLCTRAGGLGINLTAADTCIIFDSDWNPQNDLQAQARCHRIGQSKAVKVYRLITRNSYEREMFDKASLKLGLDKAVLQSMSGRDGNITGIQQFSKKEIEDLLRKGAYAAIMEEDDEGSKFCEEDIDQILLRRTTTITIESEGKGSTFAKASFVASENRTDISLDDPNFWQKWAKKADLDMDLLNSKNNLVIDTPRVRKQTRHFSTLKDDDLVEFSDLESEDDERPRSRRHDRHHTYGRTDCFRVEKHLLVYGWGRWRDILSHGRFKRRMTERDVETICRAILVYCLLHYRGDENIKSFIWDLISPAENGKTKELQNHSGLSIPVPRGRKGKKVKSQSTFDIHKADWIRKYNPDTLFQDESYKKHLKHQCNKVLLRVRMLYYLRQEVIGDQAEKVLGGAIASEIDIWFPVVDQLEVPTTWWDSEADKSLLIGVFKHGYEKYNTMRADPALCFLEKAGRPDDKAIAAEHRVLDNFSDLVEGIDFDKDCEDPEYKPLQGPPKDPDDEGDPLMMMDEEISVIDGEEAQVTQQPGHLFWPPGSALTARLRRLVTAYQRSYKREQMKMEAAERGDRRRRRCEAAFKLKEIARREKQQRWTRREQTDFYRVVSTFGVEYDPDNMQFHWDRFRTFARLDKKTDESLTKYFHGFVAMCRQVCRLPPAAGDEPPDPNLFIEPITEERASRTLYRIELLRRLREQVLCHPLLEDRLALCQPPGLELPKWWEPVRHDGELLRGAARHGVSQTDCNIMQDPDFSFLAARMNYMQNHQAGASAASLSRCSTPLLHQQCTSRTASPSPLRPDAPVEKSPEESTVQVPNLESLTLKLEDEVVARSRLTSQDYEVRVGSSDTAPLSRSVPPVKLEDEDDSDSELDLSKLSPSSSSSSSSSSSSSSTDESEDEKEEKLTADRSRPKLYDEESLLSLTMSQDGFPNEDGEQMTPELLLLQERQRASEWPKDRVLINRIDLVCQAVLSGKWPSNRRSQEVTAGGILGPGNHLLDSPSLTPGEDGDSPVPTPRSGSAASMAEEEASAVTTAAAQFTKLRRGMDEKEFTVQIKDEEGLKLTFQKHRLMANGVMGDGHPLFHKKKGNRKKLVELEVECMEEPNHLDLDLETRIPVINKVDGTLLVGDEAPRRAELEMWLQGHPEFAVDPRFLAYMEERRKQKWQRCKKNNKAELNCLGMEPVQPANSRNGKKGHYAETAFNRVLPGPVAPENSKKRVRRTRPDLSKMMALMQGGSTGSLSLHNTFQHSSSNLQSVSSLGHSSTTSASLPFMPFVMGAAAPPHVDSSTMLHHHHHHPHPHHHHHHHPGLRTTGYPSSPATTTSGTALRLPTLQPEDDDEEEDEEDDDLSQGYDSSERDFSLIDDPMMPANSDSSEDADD
UniProt Q91ZW3: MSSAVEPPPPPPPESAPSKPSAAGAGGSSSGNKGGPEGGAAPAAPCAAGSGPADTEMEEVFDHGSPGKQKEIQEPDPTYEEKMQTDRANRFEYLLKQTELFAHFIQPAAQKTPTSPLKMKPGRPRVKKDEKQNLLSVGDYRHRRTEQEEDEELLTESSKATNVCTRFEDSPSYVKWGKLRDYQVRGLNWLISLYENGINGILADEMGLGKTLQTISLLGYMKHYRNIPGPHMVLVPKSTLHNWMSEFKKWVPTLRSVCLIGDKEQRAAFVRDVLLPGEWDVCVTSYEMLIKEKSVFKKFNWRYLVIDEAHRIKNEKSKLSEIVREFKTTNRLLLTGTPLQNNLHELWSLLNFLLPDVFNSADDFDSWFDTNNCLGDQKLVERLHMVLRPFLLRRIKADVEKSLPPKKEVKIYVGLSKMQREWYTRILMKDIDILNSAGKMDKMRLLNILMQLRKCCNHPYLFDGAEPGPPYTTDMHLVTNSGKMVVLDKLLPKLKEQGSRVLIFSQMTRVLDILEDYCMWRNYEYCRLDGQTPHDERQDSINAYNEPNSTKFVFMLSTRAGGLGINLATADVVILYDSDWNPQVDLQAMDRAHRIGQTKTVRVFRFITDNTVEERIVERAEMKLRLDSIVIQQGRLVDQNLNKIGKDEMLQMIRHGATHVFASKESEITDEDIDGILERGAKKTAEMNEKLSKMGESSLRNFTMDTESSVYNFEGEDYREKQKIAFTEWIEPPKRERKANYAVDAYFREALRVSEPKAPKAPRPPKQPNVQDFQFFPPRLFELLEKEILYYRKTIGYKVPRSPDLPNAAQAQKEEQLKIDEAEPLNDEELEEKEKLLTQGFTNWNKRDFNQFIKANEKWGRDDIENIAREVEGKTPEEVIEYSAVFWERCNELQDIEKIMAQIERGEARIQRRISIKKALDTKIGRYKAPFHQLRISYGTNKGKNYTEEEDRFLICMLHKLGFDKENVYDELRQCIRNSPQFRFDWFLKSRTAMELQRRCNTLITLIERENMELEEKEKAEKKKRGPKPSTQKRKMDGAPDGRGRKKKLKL

Key:
[1] = biological target: T1, CCCTC-binding factor (CTCF) (mouse (endogenous in mESCs)) (UniProt Q61164); experiment: co-IP; co-immunoprecipitation (Fig. S7C); bait, antibodies and cells not told in the text shown
T1 sequence: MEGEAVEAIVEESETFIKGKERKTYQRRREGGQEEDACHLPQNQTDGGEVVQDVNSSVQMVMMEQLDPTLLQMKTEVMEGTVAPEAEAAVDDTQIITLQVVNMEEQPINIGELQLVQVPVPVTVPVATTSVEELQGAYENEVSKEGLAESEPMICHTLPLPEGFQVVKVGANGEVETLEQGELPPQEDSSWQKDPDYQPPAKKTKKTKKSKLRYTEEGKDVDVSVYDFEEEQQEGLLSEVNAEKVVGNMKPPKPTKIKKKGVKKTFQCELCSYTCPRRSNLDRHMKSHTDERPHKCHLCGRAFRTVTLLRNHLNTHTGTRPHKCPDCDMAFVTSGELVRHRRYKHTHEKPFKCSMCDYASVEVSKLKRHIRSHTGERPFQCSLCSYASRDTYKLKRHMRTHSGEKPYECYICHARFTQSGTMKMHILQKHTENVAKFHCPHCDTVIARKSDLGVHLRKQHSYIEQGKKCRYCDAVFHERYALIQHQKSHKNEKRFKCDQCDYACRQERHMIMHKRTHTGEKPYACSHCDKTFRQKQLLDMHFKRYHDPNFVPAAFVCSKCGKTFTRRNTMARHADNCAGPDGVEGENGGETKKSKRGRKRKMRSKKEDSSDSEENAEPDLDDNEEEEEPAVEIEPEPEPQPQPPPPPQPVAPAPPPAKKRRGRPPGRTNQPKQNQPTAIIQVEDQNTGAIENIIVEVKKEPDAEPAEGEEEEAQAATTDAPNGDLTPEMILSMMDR

[2] = biological target: T1, CCCTC-binding factor (CTCF) (mouse (endogenous in mESCs)); experiment: co-IP; endogenous biotin-tagged Chd8 mESC lines (Fig. S7E); details not told in the text shown

| binding [1] | binding [2] | Substance |
| --- | --- | --- |
| binds |  | SMARCA4/BRG1 (from UniProt Q3TKT4 1-1613) |
|  | no binding | CHD8, endogenous biotin-tagged (from UniProt Q09XV5 1-2582) |
| binds |  | SMARCA5 (from UniProt Q91ZW3 1-1051) |
| binds |  | CHD4 (from UniProt Q6PDQ2 1-1915) |
